Four molecules from paper doi:10.1101/2024.12.22.629540 can be followed below.

Chains of the proteins cited; added tags and fusions are not shown.
UniProt P70610: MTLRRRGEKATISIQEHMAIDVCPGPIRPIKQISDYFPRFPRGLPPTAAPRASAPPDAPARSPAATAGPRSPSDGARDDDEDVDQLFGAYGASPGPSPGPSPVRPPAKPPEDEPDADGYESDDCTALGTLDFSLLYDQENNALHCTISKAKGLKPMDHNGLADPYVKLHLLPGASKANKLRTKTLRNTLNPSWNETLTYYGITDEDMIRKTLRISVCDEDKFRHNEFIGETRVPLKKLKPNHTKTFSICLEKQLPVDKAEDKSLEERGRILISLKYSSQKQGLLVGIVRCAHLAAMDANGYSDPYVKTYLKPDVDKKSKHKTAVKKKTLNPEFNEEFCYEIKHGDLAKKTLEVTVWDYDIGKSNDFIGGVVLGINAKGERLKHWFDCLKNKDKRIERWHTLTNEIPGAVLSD
UniProt P42224: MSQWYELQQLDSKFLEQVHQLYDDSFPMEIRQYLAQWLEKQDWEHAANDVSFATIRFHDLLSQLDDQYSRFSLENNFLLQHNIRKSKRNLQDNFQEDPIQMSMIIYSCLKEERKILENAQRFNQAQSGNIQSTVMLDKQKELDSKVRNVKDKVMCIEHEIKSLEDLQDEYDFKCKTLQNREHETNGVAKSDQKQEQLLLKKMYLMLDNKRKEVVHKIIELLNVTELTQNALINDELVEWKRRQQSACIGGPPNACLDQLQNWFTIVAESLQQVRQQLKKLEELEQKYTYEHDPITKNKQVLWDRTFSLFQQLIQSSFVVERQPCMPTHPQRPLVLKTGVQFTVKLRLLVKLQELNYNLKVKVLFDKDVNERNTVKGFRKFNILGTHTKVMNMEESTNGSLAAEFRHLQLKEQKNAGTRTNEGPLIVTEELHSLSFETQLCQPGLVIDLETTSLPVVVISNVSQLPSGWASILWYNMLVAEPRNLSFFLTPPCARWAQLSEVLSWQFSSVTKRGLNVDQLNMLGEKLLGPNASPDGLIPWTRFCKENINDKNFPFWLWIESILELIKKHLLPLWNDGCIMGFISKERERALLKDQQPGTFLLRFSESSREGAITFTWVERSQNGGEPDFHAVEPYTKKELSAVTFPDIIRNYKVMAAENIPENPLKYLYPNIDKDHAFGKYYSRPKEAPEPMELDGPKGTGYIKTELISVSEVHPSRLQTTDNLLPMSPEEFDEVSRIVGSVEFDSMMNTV
UniProt Q7TQN4: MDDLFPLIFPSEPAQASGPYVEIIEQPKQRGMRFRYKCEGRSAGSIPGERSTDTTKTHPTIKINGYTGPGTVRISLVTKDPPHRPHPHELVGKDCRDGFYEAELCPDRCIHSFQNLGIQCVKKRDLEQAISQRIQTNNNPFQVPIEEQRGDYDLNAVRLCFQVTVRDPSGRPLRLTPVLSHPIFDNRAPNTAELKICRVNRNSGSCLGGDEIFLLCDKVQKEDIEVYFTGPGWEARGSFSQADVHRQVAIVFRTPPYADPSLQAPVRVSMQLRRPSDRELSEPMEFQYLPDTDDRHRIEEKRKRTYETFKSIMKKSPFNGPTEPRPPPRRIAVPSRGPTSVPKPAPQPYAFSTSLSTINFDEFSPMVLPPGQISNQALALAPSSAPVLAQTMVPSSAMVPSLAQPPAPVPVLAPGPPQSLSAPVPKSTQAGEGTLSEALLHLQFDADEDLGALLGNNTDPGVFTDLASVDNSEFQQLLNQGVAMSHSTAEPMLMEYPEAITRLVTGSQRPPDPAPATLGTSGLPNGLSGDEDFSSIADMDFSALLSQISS
UniProt Q14184: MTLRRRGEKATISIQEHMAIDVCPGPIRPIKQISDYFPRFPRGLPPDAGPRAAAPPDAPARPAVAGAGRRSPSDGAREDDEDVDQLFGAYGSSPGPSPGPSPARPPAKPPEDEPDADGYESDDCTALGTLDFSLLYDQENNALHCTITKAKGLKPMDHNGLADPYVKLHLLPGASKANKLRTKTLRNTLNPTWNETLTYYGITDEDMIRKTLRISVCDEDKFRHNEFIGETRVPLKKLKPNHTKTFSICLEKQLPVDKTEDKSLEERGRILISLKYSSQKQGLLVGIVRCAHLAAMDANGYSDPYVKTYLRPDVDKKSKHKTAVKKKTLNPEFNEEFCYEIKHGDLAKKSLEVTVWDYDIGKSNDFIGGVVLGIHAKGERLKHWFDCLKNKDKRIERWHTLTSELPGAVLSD

What all share (test): co-IP
Assay [1] concerns the target rat DOC2b-GFP (double C2 like domain beta) (rat) (UniProt P70610).
In assay [2] the target is STAT-1-MYCDDK (UniProt P42224).
In assay [3] the target is T1, IKKβ-MYCDDK (UniProt O14920).
T1 sequence: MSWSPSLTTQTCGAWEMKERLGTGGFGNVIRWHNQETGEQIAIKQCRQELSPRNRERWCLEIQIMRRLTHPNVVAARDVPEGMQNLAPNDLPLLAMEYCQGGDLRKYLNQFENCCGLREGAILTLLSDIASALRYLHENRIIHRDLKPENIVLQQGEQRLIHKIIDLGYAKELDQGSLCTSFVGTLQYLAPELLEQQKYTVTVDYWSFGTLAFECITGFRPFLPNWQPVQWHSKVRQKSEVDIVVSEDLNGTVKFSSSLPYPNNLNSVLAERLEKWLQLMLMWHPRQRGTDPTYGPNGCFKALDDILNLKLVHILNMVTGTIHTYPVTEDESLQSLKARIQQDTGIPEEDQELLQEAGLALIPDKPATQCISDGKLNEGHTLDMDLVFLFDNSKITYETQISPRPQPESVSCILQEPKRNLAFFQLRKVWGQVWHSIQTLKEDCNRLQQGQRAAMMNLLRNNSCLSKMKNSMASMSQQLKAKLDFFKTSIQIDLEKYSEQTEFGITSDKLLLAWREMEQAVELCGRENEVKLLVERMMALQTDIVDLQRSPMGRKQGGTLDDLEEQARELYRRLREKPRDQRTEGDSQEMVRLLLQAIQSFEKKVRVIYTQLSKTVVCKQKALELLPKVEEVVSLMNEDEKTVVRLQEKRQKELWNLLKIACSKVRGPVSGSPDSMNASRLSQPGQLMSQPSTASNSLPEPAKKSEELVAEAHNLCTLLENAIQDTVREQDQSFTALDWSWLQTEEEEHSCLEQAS

Results are given in words; binding and its absence hold for the method and conditions named. For some assays here: In cells and extracts the contact can be indirect. Some binding calls cover weakened binding; strength is not graded here. For some assays here: Where a sequence is shown, tags or fusion partners need not be part of it.

Turning to NF-κB p65 (from UniProt Q7TQN4 1-550), the binding entry in assay [1] is listed as “binds”.

On to “purified recombinant DOC2b (from UniProt Q14184 1-412)”, for which the binding entry in assay [2] and in assay [3] was “binds” in each case.

B1: IKKβ (protein, UniProt Q9QY78 1-757)
chain: MSWSPSLPTQTCGAWEMKERLGTGGFGNVIRWHNQVTGEQIAIKQCRQELSPKNRDRWCLEIQIMRRLNHPNVVAARDVPEGMQNLAPNDLPLLAMEYCQGGDLRRYLNQFENCCGLREGAILTLLSDIASALRYLHENRIIHRDLKPENIVLQQGEKRLIHKIIDLGYAKELDQGSLCTSFVGTLQYLAPELLEQQKYTVTVDYWSFGTLAFECITGFRPFLPNWQPVQWHSKVRQKSEVDIVVSEDLNGTVKFSSSSPFPNNLNSVLAERLEKWLQLMLTWQPRQRGVDPQYGPNGCFRALDDILNLKLVHILNMVTGTIHTYPVMEDESLQSLKTRIREDTGILETDQELLQEAGLVLLPDKPATQCISDSKTNEGLTLDMDLVFLFDNSKMSYETQITPRPQPESVSCVLQEPKRNLSFFQMRKVWGQVWHSIQTLKEDCNRLQQGQRAAMMNLLRNNSCLSKMKNAMASTAQQLKAKLDFFKTSIQIDLEKYREQTEFGITSDKLLLAWREMEQAVEQCGRENDVKVLVERMMALQTDIVDLQRSPMGRKQGGTLDDLEEQARELYRRLREKPRDQRTEGDSQDMVRLLLQAIQSFEKKVRVIYSQLSKTVVCKQKALELLPKVEEVVRLMNEDEKTVVRLQEKRQKELWNLLKIACSKVRGPVSGSPDSMNVSRLSHPGHLMSQPSSACDSLPDSDKKSEELVAEAHALCSRLESALQDTVKQQDRSFTTLDWSWLQMEDEERCGLEQACD
Turning to B1, the binding result in assay [1] is “binds”.

B2: STAT-1 (protein, UniProt Q9QXK0 1-749)
chain: MSQWFELQQLDSKFLEQVHQLYDDSFPMEIRQYLAQWLEKQDWEHAAYDVSFATIRFHDLLSQLDDQYSRFSLENNFLLQHNIRKSKRNLQDNFQEDPVQMSMIIHNCLKEERKILENAQRFNQAQEGNIQNTVMLDKQKELDSKVRNVKDQVMCIEHEIKTLEDLQDEYDFKCKTSQNRESEANGVAKSDQKQEQLLLHKMFLMLDNKRKEIIHKIRELLNSIELTQNTLINDELVEWKRRQQSACIGGPPNACLDQLQSWFTIVAESLQQVRQQLKKLEELEQKFTYEQDPITKNKQVLSDRTFVLFQQLIQSSFVVERQPCMPTHPQRPLVLKTGVQFTVKLRLLVKLQELNYNLKVKVSFDKDVNEKNTVKGFRKFNILGTHTKVMNMEESTNGSLAAEFRHLQLKEQKNAGNRTNEGPLIVTEELHSLSFETQLCQPGLVIDLETTSLPVVVISNVSQLPSGWASILWYNMLVTEPRNLSFFLNPPCAWWSQLSEVLSWQFSSVTKRGLNADQLSMLGEKLLGPNAGPDGLIPWTRFCKENINDKNFSFWPWIDTILELIKKHLLCLWNDGCIMGFISKERERALLKDQQPGTFLLRFSESSREGAITFTWVERSQNGGEPDFHAVEPYTKKELSAVTFPDIIRNYKVMAAENIPENPLKYLYPNIDKDHAFGKYYSRPKEAPEPMELDDPKRTGYIKTELISVSEVHPSRLQSTENLLPMSPEEFDEMSKIVGSEFDSMMSAV
B2: the binding result in assay [1] is listed as “binds”.
